PubChem BioAssay AID1259276 | Sanger Institute, 2017

- Purpose: 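Kinome-wide search for kinases colon cancer cells need, and for drug partners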 (primary screen)
- System: human C2BBe1 colorectal cancer cells
- Reagent: siRNA pool against human genes
- Conditions: DMSO vehicle, or one anchor drug: BYL719 at 1 µM, cetuximab at 5 µg/ml, or trametinib at 10 nM; exposure length not stated
- Read-out: 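Viability after knock-down relative to non-targeting siRNA controls, averaged across replicates, given as ratio and control-derived robust z-score, with per-drug synergy scores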
- Direction: viability robust z-score, siRNA alone and viability vs control, siRNA alone: higher = more viable cells after knock-down
- Call rule: 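a siRNA pool tested without drug is essential if its viability robust z-score falls under -3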
- Calls: active = essential (siRNA alone); inactive = no change (siRNA alone)
Here is one part, drawn at random, of 794 reagents. Over the whole deposit, 24 (3%) got an active call. 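Calls come only from the siRNA-alone arm; drug synergy scores do not affect them.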 No viability above 1 is reported: the scale is capped. Further read-outs or replicates are left out here. The record does not give: the amount of reagent, the time to read-out.

For AGK, how do the results read?
viability robust z-score, siRNA alone: 0.472; viability vs control, siRNA alone: 1; activity call: inactive

With CDK15, how do the results read?
viability robust z-score, siRNA alone: 0.472; viability vs control, siRNA alone: 1; activity call: inactive

For GK, what was measured?
viability robust z-score, siRNA alone: 0.472; viability vs control, siRNA alone: 1; activity call: inactive

For CPNE3, what was measured?
viability robust z-score, siRNA alone: 0.472; viability vs control, siRNA alone: 1; activity call: inactive

With TPD52L3, what does the deposit list?
viability robust z-score, siRNA alone: 0.472; viability vs control, siRNA alone: 1; activity call: inactive

With MAPK9, what does the deposit list?
viability robust z-score, siRNA alone: 0.472; viability vs control, siRNA alone: 1; activity call: inactive

What did the screen give for PTK6?
viability robust z-score, siRNA alone: 0.472; viability vs control, siRNA alone: 1; activity call: inactive

With AKT3, what does the deposit list?
viability robust z-score, siRNA alone: -1.14; viability vs control, siRNA alone: 0.898; activity call: inactive

What is on record for TCF12?
viability robust z-score, siRNA alone: 0.472; viability vs control, siRNA alone: 1; activity call: inactive

Which result is listed for CRIM1?
viability robust z-score, siRNA alone: -1.55; viability vs control, siRNA alone: 0.873; activity call: inactive

For PAK4, what does the deposit list?
viability robust z-score, siRNA alone: 0.472; viability vs control, siRNA alone: 1; activity call: inactive

What is on record for PTGS1?
viability robust z-score, siRNA alone: -2.12; viability vs control, siRNA alone: 0.837; activity call: inactive
